Percent effect of library compounds

Results are given as percent effect. The record does not define 0% and 100%; most values in the screen are far below 50% and negative numbers occur (in some assays of this library far below -100). The compounds are a random part of those screened. Two or more numbers in one place are separate tests of the same structure; such repeats can differ widely.

Mtb cholesterol medium: 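Phenotypic screen: M. tuberculosis growth, cholesterol and DPPC medium, 4 days; the read-out is not stated. Compounds at 50 µM. Higher reads as more growth inhibition (inferred: compounds with an IC50 in retests scored well above the rest). Of about 69,000 compounds tested this way, about 370 (0.54%) reached 50% or more in at least one test.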
Mtb glucose medium: 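Phenotypic screen: M. tuberculosis growth, glucose 7H9 medium, 3 days; the read-out is not stated. Tested at 50 µM. Higher reads as more growth inhibition (inferred: compounds with an IC50 in retests scored well above the rest). Size under these conditions: about 69,000 compounds, about 760 of them at 50% or above in at least one test.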

CC(C)C(Sc1cccs1)C(=O)NCc1cccnc1 (configuration not stated) gave Mtb cholesterol medium: 2.726%; Mtb glucose medium: -6.829% and 4.999%.
[H][C@]12CCCC(N(C)Cc3ccncc3)[C@@]1([H])CN(c1ncccn1)C2 (some centres not stated) gave Mtb cholesterol medium: 9.675%; Mtb glucose medium: -7.634% and -0.2558%.
Cc1cc(N2CCC(O)(CN(C)C(=O)CCN)C2)c2cnccc2n1 (configuration not stated) gave Mtb cholesterol medium: 23.7% and -2.914%; Mtb glucose medium: -19.17%.
CCN(C)C(=O)c1cccc(S(=O)(=O)NCCc2nc(C)cc(=O)[nH]2)c1 gave Mtb cholesterol medium: -12.19%; Mtb glucose medium: -4.027% and 17.84%.
COc1cc(-c2nc(CN(CCO)CCO)c(C)o2)ccc1F gave Mtb cholesterol medium: 10.75%; Mtb glucose medium: -0.8556%.
O=C(c1ccc(-n2cccc2)c(F)c1)N1CCCN2CCCC2C1 (configuration not stated) gave Mtb cholesterol medium: 7.943%; Mtb glucose medium: 21.5%.
CS(=O)(=O)N1CCc2c(cccc2NC(=O)NC2CCCC2)C1 gave Mtb cholesterol medium: -7.571% and -12.21%; Mtb glucose medium: -17.61%.
O=C(CCNc1ncccn1)N1CCCN(c2nccs2)CC1 gave Mtb cholesterol medium: -37.02%; Mtb glucose medium: -24.78%.
Cc1cc(F)ccc1S(=O)(=O)N1CCN(C)c2ccncc21 gave Mtb cholesterol medium: -1.833%; Mtb glucose medium: -8.46% and -3.478%.
Cc1cc(C2CCCN(C(=O)COc3cccc(F)c3)C2)n[nH]1 (configuration not stated) gave Mtb cholesterol medium: 5.659%; Mtb glucose medium: 0.2462% and 29.88%.
O=S(=O)(NCCCn1cncn1)c1ccc2c(c1)CCO2 gave Mtb cholesterol medium: 3.113%; Mtb glucose medium: 6.187%.
CC(C)CC(=O)NCCCc1cc(N)n(-c2ccccc2)n1 gave Mtb cholesterol medium: -20.3%; Mtb glucose medium: -11.81%.
CCc1ccc2nc(-c3cnn(C)c3)cc(C(=O)N3CCOCC3)c2c1 gave Mtb cholesterol medium: -1.611%; Mtb glucose medium: -10.4%.
Cc1cc(CC(C)NC(=O)c2cccc(CC3CCNCC3)c2)[nH]n1 (configuration not stated) gave Mtb cholesterol medium: 1.653% and -7.402%; Mtb glucose medium: -11.06%.
CCN1CC(C(=O)NCc2nn(CC)c3ccccc23)CCC1=O (configuration not stated) gave Mtb cholesterol medium: -4.645%; Mtb glucose medium: 11.31%.
CC1CCCN(CCCNC(=O)Cc2csc(-c3ccoc3)n2)C1 (configuration not stated) gave Mtb cholesterol medium: -5.654% and -28.68%; Mtb glucose medium: -5.375%.
Cc1cccc(CCC(=O)N2CCCC(c3cc(C(N)=O)[nH]n3)C2)c1 (configuration not stated) gave Mtb cholesterol medium: -11.88%; Mtb glucose medium: 13.26%.
CC(C)c1cc(C(=O)N2CCCC2c2nc(-c3ccccc3)no2)[nH]n1 (configuration not stated) gave Mtb cholesterol medium: -6.018%; Mtb glucose medium: 4.897%.
CCCn1ncc(C2CC(=O)NCc3nc4sc(C)cn4c32)c1C (configuration not stated) gave Mtb cholesterol medium: -0.9733%; Mtb glucose medium: 13.34%.
[H][C@]12CN(C(=O)C3CC3)CCN1C[C@@H](CO)[C@@H]2c1ccccc1 gave Mtb cholesterol medium: 18.37%; Mtb glucose medium: 38.87%.
O=C(CN1CCc2cncnc2C1)Nc1ccc(Cl)cn1 gave Mtb cholesterol medium: -4.889%; Mtb glucose medium: 3.854%.
CS(=O)(=O)N1CCN(Cc2cccs2)CC(C(N)=O)C1 (configuration not stated) gave Mtb cholesterol medium: 1.769%; Mtb glucose medium: 13.1%.
Cc1cccc(-n2ncc(C(=O)N3CCn4c(C)nnc4C3)c2C)c1 gave Mtb cholesterol medium: -12.18%; Mtb glucose medium: 16.59%.
COC(=O)CN(C(=O)c1ccco1)c1cccc(F)c1 gave Mtb cholesterol medium: -15.52%; Mtb glucose medium: -14.01% and 3.8%.
Cc1n[nH]c(C2CN(Cc3nnc(C4CC4)n3C)CCO2)n1 (configuration not stated) gave Mtb cholesterol medium: 21%; Mtb glucose medium: 13.08%.
CC(C)(C)OC(=O)N1CCC(C(=O)NCc2cc3ccccc3[nH]2)C1 (configuration not stated) gave Mtb cholesterol medium: 1.746%; Mtb glucose medium: -11.96%.
N[C@H]1CN(Cc2cnc(N3CCCC3)nc2)C[C@@H]1C1CC1 gave Mtb cholesterol medium: -1.477%; Mtb glucose medium: -1.171%.
CSCC(=O)N1CCc2c(cnc(C)c2-c2noc(-c3ccco3)n2)C1 gave Mtb cholesterol medium: 33.47%; Mtb glucose medium: 14.1% and 15.38%.
CCNC(=O)C1CCN(c2cc(-c3ccccc3)nc3ccnn23)C1 (configuration not stated) gave Mtb cholesterol medium: 2.419%; Mtb glucose medium: -15.85%.
CCc1nc(C)cn1C(=O)Nc1ccc(C)cc1 gave Mtb cholesterol medium: -10.04%; Mtb glucose medium: -5.342%.
CC1CCN(c2nc3ncc4c(c3c(=O)[nH]2)CC(C)(C)CC4=O)CC1 gave Mtb cholesterol medium: 2.549%; Mtb glucose medium: -3.932% and -12.22%.
OCCN(CCO)Cc1ccc(Br)c2cccnc12 gave Mtb cholesterol medium: 8.801%; Mtb glucose medium: 18.44% and -9.085%.

Some entries from above, unchanged:

Cc1cccc(-n2ncc(C(=O)N3CCn4c(C)nnc4C3)c2C)c1 gave Mtb cholesterol medium: -12.18%; Mtb glucose medium: 16.59%.
N[C@H]1CN(Cc2cnc(N3CCCC3)nc2)C[C@@H]1C1CC1 gave Mtb cholesterol medium: -1.477%; Mtb glucose medium: -1.171%.
CCc1ccc2nc(-c3cnn(C)c3)cc(C(=O)N3CCOCC3)c2c1 gave Mtb cholesterol medium: -1.611%; Mtb glucose medium: -10.4%.
CC(C)C(Sc1cccs1)C(=O)NCc1cccnc1 (configuration not stated) gave Mtb cholesterol medium: 2.726%; Mtb glucose medium: -6.829% and 4.999%.

The values are deposited in ChEMBL (CHEMBL3988442, “University of Dundee, Small-Polar-MMV Screening Library” (2021)).